PubChem BioAssay AID1259405 – NCATS | 2018
This is one part, drawn at random, of about 50,000 reagents. About 4,000 of all reagents (8%) were called active. 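Mouse siRNA library applied to hamster cells; one well for each siRNA.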 The numbers tell different reagents against one gene apart. No sequences are given here.

Screen: 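Mouse-designed siRNAs used to find CHO productivity engineering targets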 (primary screen)
Cells: Chinese hamster CHO-K1 ovary cells with stable secreted eGFP expression
Reagents: single siRNA against mouse genes, 0.8 pmol siRNA per well (2 µl of 400 nM stock)
Time to read-out: 3 days
Measured: 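Percent of the per-plate non-targeting control median for intracellular GFP per well by laser scanning cytometry and for cell viability by ATP luminescence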
Reading the numbers: GFP, % of control: higher = more GFP per well, higher productivity; viability (ATP), % of control: higher = more viable cells (more ATP)
Call rule: 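a knock-down is called active if GFP reaches 120% or more of non-targeting control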

{"target gene": "Acvr2b (activin receptor IIB)", "reagent no.": 1, "GFP, % of control": 82.8, "viability (ATP), % of control": 80.5, "call": "inactive"}
{"target gene": "Klhl23 (kelch-like 23)", "reagent no.": 1, "GFP, % of control": 61.7, "viability (ATP), % of control": 76.4, "call": "inactive"}
{"target gene": "Klhl23 (kelch-like 23)", "reagent no.": 2, "GFP, % of control": 81.6, "viability (ATP), % of control": 80.5, "call": "inactive"}
{"target gene": "Klhl23 (kelch-like 23)", "reagent no.": 3, "GFP, % of control": 190, "viability (ATP), % of control": 178, "call": "active"}
{"target gene": "Trabd (TraB domain containing)", "reagent no.": 1, "GFP, % of control": 69.6, "viability (ATP), % of control": 57.9, "call": "inactive"}
{"target gene": "Trabd (TraB domain containing)", "reagent no.": 2, "GFP, % of control": 93.3, "viability (ATP), % of control": 85.8, "call": "inactive"}
{"target gene": "Trabd (TraB domain containing)", "reagent no.": 3, "GFP, % of control": 44.7, "viability (ATP), % of control": 77.8, "call": "inactive"}
{"target gene": "Lpar4 (lysophosphatidic acid receptor 4)", "reagent no.": 1, "GFP, % of control": 55.9, "viability (ATP), % of control": 52.8, "call": "inactive"}
{"target gene": "Lpar4 (lysophosphatidic acid receptor 4)", "reagent no.": 2, "GFP, % of control": 57.1, "viability (ATP), % of control": 69.7, "call": "inactive"}
{"target gene": "Lpar4 (lysophosphatidic acid receptor 4)", "reagent no.": 3, "GFP, % of control": 78.1, "viability (ATP), % of control": 72.1, "call": "inactive"}
{"target gene": "Dnajc5b (DnaJ heat shock protein family (Hsp40) member C5 beta)", "reagent no.": 1, "GFP, % of control": 130, "viability (ATP), % of control": 87, "call": "active"}
{"target gene": "Dnajc5b (DnaJ heat shock protein family (Hsp40) member C5 beta)", "reagent no.": 2, "GFP, % of control": 95.8, "viability (ATP), % of control": 87.4, "call": "inactive"}
{"target gene": "Dnajc5b (DnaJ heat shock protein family (Hsp40) member C5 beta)", "reagent no.": 3, "GFP, % of control": 121, "viability (ATP), % of control": 128, "call": "active"}
{"target gene": "Fcsk (fucose kinase)", "reagent no.": 1, "GFP, % of control": 83.4, "viability (ATP), % of control": 81.1, "call": "inactive"}
{"target gene": "Fcsk (fucose kinase)", "reagent no.": 2, "GFP, % of control": 70.7, "viability (ATP), % of control": 67.1, "call": "inactive"}

Next part (3 carried over from the part before).
{"target gene": "Dnajc5b (DnaJ heat shock protein family (Hsp40) member C5 beta)", "reagent no.": 3, "GFP, % of control": 121, "viability (ATP), % of control": 128, "call": "active"}
{"target gene": "Fcsk (fucose kinase)", "reagent no.": 1, "GFP, % of control": 83.4, "viability (ATP), % of control": 81.1, "call": "inactive"}
{"target gene": "Fcsk (fucose kinase)", "reagent no.": 2, "GFP, % of control": 70.7, "viability (ATP), % of control": 67.1, "call": "inactive"}
{"target gene": "Snapc2 (small nuclear RNA activating complex, polypeptide 2)", "reagent no.": 1, "GFP, % of control": 86.9, "viability (ATP), % of control": 54.8, "call": "inactive"}
{"target gene": "Snapc2 (small nuclear RNA activating complex, polypeptide 2)", "reagent no.": 2, "GFP, % of control": 84.5, "viability (ATP), % of control": 53.8, "call": "inactive"}
{"target gene": "Snapc2 (small nuclear RNA activating complex, polypeptide 2)", "reagent no.": 3, "GFP, % of control": 51.6, "viability (ATP), % of control": 63, "call": "inactive"}
{"target gene": "Me1 (malic enzyme 1, NADP(+)-dependent, cytosolic)", "reagent no.": 1, "GFP, % of control": 81.5, "viability (ATP), % of control": 75.2, "call": "inactive"}
{"target gene": "Me1 (malic enzyme 1, NADP(+)-dependent, cytosolic)", "reagent no.": 2, "GFP, % of control": 89.3, "viability (ATP), % of control": 86.4, "call": "inactive"}
{"target gene": "Me1 (malic enzyme 1, NADP(+)-dependent, cytosolic)", "reagent no.": 3, "GFP, % of control": 70.2, "viability (ATP), % of control": 70.6, "call": "inactive"}
{"target gene": "Otc (ornithine transcarbamylase)", "reagent no.": 1, "GFP, % of control": 42.2, "viability (ATP), % of control": 52.2, "call": "inactive"}
{"target gene": "Otc (ornithine transcarbamylase)", "reagent no.": 2, "GFP, % of control": 89.7, "viability (ATP), % of control": 62.8, "call": "inactive"}
{"target gene": "Or13a21 (olfactory receptor family 13 subfamily A member 21)", "reagent no.": 1, "GFP, % of control": 106, "viability (ATP), % of control": 42.5, "call": "inactive"}
{"target gene": "Or13a21 (olfactory receptor family 13 subfamily A member 21)", "reagent no.": 2, "GFP, % of control": 69.2, "viability (ATP), % of control": 95.8, "call": "inactive"}
{"target gene": "Or13a21 (olfactory receptor family 13 subfamily A member 21)", "reagent no.": 3, "GFP, % of control": 51, "viability (ATP), % of control": 55.7, "call": "inactive"}
{"target gene": "Vps37b (vacuolar protein sorting 37B)", "reagent no.": 1, "GFP, % of control": 59.6, "viability (ATP), % of control": 62.5, "call": "inactive"}
{"target gene": "Vps37b (vacuolar protein sorting 37B)", "reagent no.": 2, "GFP, % of control": 109, "viability (ATP), % of control": 102, "call": "inactive"}
{"target gene": "Vps37b (vacuolar protein sorting 37B)", "reagent no.": 3, "GFP, % of control": 145, "viability (ATP), % of control": 147, "call": "active"}
